The list shows a part of the results.
Columns and labels:
Experiment in all cases: glycan array binding signal (z-score within array); higher = stronger binding
Conditions in all cases: glycan notation: IUPAC condensed, linker removed
Gal(b1-2)Gal = biological target: Gal(b1-2)Gal
Method in brief: (§1)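 The binding signal is a Z-score computed within each array. Data were drawn from 3228 arrays in the Consortium for Functional Glycomics database, restricted to those with a known protein sequence. Scores were averaged over arrays of the same protein sequence at different concentrations or buffers, and over linkers, and negative values can be taken as non-binding.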

Gal(b1-3)Gal = biological target: Gal(b1-3)Gal
Method in brief: as §1

Gal(b1-3)Gal(b1-4)GlcNAc = biological target: Gal(b1-3)Gal(b1-4)GlcNAc
Method in brief: as §1

Gal(b1-3)GalNAc = biological target: Gal(b1-3)GalNAc
Method in brief: as §1

[1] = biological target: Gal(b1-3)GalNAc(a1-3)[Fuc(a1-2)]Gal(b1-4)Glc
Method in brief: as §1

[2] = biological target: Gal(b1-3)GalNAc(a1-3)[Fuc(a1-2)]Gal(b1-4)GlcNAc
Method in brief: as §1

Gal(b1-3)GalNAc(b1-3)Gal = biological target: Gal(b1-3)GalNAc(b1-3)Gal
Method in brief: as §1

[3] = biological target: Gal(b1-3)GalNAc(b1-3)Gal(a1-4)Gal(b1-4)Glc
Method in brief: as §1

[4] = biological target: Gal(b1-3)GalNAc(b1-4)Gal(b1-4)Glc
Method in brief: as §1

[5] = biological target: Gal(b1-3)GalNAc(b1-4)[Neu5Ac(a2-3)]Gal(b1-4)Glc
Method in brief: as §1

Gal(b1-3)GlcNAc = biological target: Gal(b1-3)GlcNAc
Method in brief: as §1

[6] = biological target: Gal(b1-3)GlcNAc(a1-3)Gal(b1-4)GlcNAc
Method in brief: as §1

[7] = biological target: Gal(b1-3)GlcNAc(a1-6)Gal(b1-4)GlcNAc
Method in brief: as §1

Gal(b1-3)GlcNAc(b1-2)Man = biological target: Gal(b1-3)GlcNAc(b1-2)Man
Method in brief: as §1

[8] = biological target: Gal(b1-3)GlcNAc(b1-2)Man(a1-3)[Gal(b1-3)GlcNAc(b1-2)Man(a1-6)]Man(b1-4)GlcNAc(b1-4)GlcNAc
Method in brief: as §1

[9] = biological target: Gal(b1-3)GlcNAc(b1-2)Man(a1-3)[Gal(b1-3)GlcNAc(b1-2)Man(a1-6)]Man(b1-4)GlcNAc(b1-4)[Fuc(a1-6)]GlcNAc
Method in brief: as §1

[10] = biological target: Gal(b1-3)GlcNAc(b1-2)Man(a1-3)[GlcNAc(b1-4)][Gal(b1-3)GlcNAc(b1-2)Man(a1-6)]Man(b1-4)GlcNAc(b1-4)GlcNAc
Method in brief: as §1

[11] = biological target: Gal(b1-3)GlcNAc(b1-2)[Gal(b1-3)GlcNAc(b1-6)]Man(a1-6)[Gal(b1-3)GlcNAc(b1-2)Man(a1-3)]Man(b1-4)GlcNAc(b1-4)GlcNAc
Method in brief: as §1

[12] = biological target: Gal(b1-3)GlcNAc(b1-3)Gal(b1-3)GlcNAc
Method in brief: as §1

[13] = biological target: Gal(b1-3)GlcNAc(b1-3)Gal(b1-4)Glc
Method in brief: as §1

[14] = biological target: Gal(b1-3)GlcNAc(b1-3)Gal(b1-4)GlcNAc
Method in brief: as §1

[15] = biological target: Gal(b1-3)GlcNAc(b1-3)Gal(b1-4)GlcNAc(b1-2)Man(a1-3)[Gal(b1-3)GlcNAc(b1-3)Gal(b1-4)GlcNAc(b1-2)Man(a1-6)]Man(b1-4)GlcNAc(b1-4)GlcNAc
Method in brief: as §1

[16] = biological target: Gal(b1-3)GlcNAc(b1-3)Gal(b1-4)GlcNAc(b1-2)[Gal(b1-3)GlcNAc(b1-3)Gal(b1-4)GlcNAc(b1-6)]Man(a1-6)[Gal(b1-3)GlcNAc(b1-3)Gal(b1-4)GlcNAc(b1-2)Man(a1-3)]Man(b1-4)GlcNAc(b1-4)[Fuc(a1-6)]GlcNAc
Method in brief: as §1

[17] = biological target: Gal(b1-3)GlcNAc(b1-3)Gal(b1-4)GlcNAc(b1-3)Gal(b1-4)GlcNAc(b1-2)[Gal(b1-3)GlcNAc(b1-3)Gal(b1-4)GlcNAc(b1-3)Gal(b1-4)GlcNAc(b1-6)]Man(a1-6)[Gal(b1-3)GlcNAc(b1-3)Gal(b1-4)GlcNAc(b1-3)Gal(b1-4)GlcNAc(b1-2)Man(a1-3)]Man(b1-4)GlcNAc(b1-4)[Fuc(a1-6)]GlcNAc
Method in brief: as §1

[18] = biological target: Gal(b1-3)GlcNAc(b1-3)Gal(b1-4)GlcNAc(b1-6)[Gal(b1-3)GlcNAc(b1-3)]Gal(b1-4)Glc
Method in brief: as §1

[19] = biological target: Gal(b1-3)GlcNAc(b1-3)Gal(b1-4)[Fuc(a1-3)]GlcNAc
Method in brief: as §1

[20] = biological target: Gal(b1-3)GlcNAc(b1-3)Gal(b1-4)[Fuc(a1-3)]GlcNAc(b1-6)[Gal(b1-3)GlcNAc(b1-3)]Gal(b1-4)Glc
Method in brief: as §1

[21] = biological target: Gal(b1-3)GlcNAc(b1-3)GalNAc
Method in brief: as §1

[22] = biological target: Gal(b1-3)GlcNAc(b1-6)Gal(b1-4)GlcNAc
Method in brief: as §1

[23] = biological target: Gal(b1-3)GlcNAc(b1-6)GalNAc
Method in brief: as §1

[24] = biological target: Gal(b1-3)GlcNAc(b1-6)[Gal(b1-3)]GalNAc
Method in brief: as §1

Gal(b1-3)GlcNAc6S = biological target: Gal(b1-3)GlcNAc6S
Method in brief: as §1

[25] = biological target: Gal(b1-3)[Fuc(a1-4)]GlcNAc
Method in brief: as §1

[26] = biological target: Gal(b1-3)[Fuc(a1-4)]GlcNAc(b1-2)Man
Method in brief: as §1

[27] = biological target: Gal(b1-3)[Fuc(a1-4)]GlcNAc(b1-2)Man(a1-3)[Gal(b1-3)[Fuc(a1-4)]GlcNAc(b1-2)Man(a1-6)]Man(b1-4)GlcNAc(b1-4)[Fuc(a1-6)]GlcNAc
Method in brief: as §1

[28] = biological target: Gal(b1-3)[Fuc(a1-4)]GlcNAc(b1-3)Gal(b1-3)[Fuc(a1-4)]GlcNAc
Method in brief: as §1

[29] = biological target: Gal(b1-3)[Fuc(a1-4)]GlcNAc(b1-3)Gal(b1-4)[Fuc(a1-3)]GlcNAc
Method in brief: as §1

B1: PX14343C-bfa-541-26-541 (Bacteroides fragilis) (protein)
chain: KAPLDEIADDSFWSDETLVKYYVNDLYSEISVDGLQLQENRSDNSVSAQRDKYRASWFKFNYDMVSASDPQDDDVWEDYYVKVRKCNRFFERIGTSTIEESEKSRLTGEVHFLRAMFYFEMVKRYGGVILLDKVLTMEDNWEIPRSSEKECYDFILEDLKKATEMLPASYGSREKGRATKGAAYALKSRVELYDKRYEDVIKSCAEVYKLGYELVDGTTPEKYRSIWWTTNKDNKEIIFDVQYKSPDVYNNMMVCNMVTYINDKYGDRGWGGLGPTQELIDAFEMADGTPATQYSQAPADQVFDINTCGIYEGREPRFYANIVFHGSQIFFNADKGAVTVDRYLMDTPDKGDGSLTGYNVWKWIDYDNYNYPYAGAGSPDFSTNWIILRYAEIYLNDAEARLETGDVEGARKAVNMIRQRVGLPDLTESDPEKLRELIRKERRIEFAFEEQRFYDVRRWKIGPETQTTLHGVRFVSPTEFKVTKTDIRTWNDRLYLTPVPHDEIVRSSVLKQNLGY
glycan array binding signal (z-score) (Gal(b1-2)Gal): -0.389
glycan array binding signal (z-score) (Gal(b1-3)Gal): 0.156
glycan array binding signal (z-score) (Gal(b1-3)Gal(b1-4)GlcNAc): 0.007
glycan array binding signal (z-score) (Gal(b1-3)GalNAc): 0.283
glycan array binding signal (z-score) [1]: -0.508
glycan array binding signal (z-score) [2]: -1.13
glycan array binding signal (z-score) (Gal(b1-3)GalNAc(b1-3)Gal): -0.768
glycan array binding signal (z-score) [3]: -0.233
glycan array binding signal (z-score) [4]: -0.284
glycan array binding signal (z-score) [5]: -0.243
glycan array binding signal (z-score) (Gal(b1-3)GlcNAc): -0.472
glycan array binding signal (z-score) [6]: -1.03
glycan array binding signal (z-score) [7]: -0.071
glycan array binding signal (z-score) (Gal(b1-3)GlcNAc(b1-2)Man): 0.108
glycan array binding signal (z-score) [8]: 2.98
glycan array binding signal (z-score) [9]: 0.747
glycan array binding signal (z-score) [10]: -0.624
glycan array binding signal (z-score) [11]: 0.558
glycan array binding signal (z-score) [12]: 0.115
glycan array binding signal (z-score) [13]: 0.369
glycan array binding signal (z-score) [14]: 1.35
glycan array binding signal (z-score) [15]: 1.24
glycan array binding signal (z-score) [16]: 0.437
glycan array binding signal (z-score) [17]: 1.66
glycan array binding signal (z-score) [18]: -0.748
glycan array binding signal (z-score) [19]: -0.314
glycan array binding signal (z-score) [20]: -0.365
glycan array binding signal (z-score) [21]: 0.08
glycan array binding signal (z-score) [22]: -0.475
glycan array binding signal (z-score) [23]: -0.625
glycan array binding signal (z-score) [24]: 0.155
glycan array binding signal (z-score) (Gal(b1-3)GlcNAc6S): 0.281
glycan array binding signal (z-score) [25]: -0.74
glycan array binding signal (z-score) [26]: -0.63
glycan array binding signal (z-score) [27]: -0.223
glycan array binding signal (z-score) [28]: -1.19
glycan array binding signal (z-score) [29]: -0.835

From the supplement of paper PMC8728848
